Laboratory results reported in patent US20100216649A1.
These are yes or no findings as the source states them, for the method shown. Some binding calls cover weakened binding; strength is not graded here.

Amino acid sequences for entries named in this document (tags omitted). A change or cut given only in a name is not applied to a line headed by its entry.
UniProt P57722: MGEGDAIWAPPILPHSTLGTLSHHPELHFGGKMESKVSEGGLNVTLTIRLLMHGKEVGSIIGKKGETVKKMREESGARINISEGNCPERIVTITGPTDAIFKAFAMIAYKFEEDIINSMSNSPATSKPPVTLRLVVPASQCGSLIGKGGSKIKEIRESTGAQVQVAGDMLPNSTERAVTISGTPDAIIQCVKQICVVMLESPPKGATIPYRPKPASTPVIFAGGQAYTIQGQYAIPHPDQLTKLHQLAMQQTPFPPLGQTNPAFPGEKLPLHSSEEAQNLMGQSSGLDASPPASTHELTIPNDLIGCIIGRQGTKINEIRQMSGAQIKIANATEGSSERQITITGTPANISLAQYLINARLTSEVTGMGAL
UniProt P26039: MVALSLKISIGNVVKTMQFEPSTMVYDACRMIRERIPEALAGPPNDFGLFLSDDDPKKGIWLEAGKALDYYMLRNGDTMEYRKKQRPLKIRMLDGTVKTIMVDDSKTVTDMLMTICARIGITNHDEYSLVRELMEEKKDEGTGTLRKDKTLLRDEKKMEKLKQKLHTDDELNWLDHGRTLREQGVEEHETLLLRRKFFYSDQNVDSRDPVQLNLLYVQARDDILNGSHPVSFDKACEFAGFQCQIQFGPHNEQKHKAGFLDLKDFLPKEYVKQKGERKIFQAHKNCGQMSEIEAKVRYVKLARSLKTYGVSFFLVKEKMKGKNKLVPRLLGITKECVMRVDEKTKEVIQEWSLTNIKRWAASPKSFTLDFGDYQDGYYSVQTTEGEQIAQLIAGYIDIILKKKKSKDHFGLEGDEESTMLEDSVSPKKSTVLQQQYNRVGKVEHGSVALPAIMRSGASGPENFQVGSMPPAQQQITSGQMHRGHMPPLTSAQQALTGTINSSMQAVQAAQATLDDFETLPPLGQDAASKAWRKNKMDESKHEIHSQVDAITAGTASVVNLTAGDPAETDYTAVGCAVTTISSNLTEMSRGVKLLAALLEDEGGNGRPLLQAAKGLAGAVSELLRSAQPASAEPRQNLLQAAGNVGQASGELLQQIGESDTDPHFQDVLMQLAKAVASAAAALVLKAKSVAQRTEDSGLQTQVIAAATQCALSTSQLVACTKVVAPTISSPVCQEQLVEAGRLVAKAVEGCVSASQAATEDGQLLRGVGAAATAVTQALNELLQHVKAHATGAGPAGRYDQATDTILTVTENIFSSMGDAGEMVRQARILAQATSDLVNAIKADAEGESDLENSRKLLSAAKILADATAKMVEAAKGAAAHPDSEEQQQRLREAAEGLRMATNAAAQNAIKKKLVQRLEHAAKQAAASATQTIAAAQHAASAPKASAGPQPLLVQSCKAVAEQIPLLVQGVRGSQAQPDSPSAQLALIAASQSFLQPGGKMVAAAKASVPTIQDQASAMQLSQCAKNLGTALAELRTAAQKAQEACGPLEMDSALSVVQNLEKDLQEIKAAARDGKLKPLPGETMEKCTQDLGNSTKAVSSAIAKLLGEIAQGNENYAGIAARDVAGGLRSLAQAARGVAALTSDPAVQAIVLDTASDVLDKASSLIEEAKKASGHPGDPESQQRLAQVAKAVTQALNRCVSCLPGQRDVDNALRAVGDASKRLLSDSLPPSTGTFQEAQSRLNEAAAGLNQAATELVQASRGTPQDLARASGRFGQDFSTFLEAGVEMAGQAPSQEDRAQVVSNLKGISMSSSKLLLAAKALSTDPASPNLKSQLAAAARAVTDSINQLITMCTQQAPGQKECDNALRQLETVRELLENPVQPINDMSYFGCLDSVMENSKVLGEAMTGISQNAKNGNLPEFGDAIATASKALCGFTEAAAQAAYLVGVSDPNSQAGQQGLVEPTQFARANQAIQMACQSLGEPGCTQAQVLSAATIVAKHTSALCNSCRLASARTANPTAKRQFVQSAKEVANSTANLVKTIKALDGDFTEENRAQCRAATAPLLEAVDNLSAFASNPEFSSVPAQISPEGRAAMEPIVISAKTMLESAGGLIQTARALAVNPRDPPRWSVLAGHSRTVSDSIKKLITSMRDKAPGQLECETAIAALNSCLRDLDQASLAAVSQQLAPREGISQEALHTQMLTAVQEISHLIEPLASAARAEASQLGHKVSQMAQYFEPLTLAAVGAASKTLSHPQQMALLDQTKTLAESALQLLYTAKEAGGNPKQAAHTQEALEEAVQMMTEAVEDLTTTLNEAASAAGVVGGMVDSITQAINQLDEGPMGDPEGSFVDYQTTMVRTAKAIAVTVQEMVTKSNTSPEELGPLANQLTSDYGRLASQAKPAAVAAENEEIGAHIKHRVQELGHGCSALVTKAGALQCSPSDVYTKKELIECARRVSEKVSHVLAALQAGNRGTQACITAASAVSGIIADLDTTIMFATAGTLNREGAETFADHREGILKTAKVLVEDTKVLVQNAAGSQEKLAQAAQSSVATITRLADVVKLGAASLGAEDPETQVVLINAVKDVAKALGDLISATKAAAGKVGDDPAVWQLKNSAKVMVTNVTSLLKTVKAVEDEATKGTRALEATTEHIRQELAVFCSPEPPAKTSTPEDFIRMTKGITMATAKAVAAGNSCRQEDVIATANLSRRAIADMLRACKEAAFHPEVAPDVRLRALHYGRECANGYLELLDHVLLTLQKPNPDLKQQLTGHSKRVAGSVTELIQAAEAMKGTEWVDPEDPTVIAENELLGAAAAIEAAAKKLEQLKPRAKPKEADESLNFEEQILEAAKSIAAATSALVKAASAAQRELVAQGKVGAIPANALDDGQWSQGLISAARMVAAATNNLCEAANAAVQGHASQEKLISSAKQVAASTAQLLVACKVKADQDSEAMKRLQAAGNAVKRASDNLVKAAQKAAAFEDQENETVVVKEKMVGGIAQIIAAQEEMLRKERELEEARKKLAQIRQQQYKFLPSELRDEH
UniProt P99024: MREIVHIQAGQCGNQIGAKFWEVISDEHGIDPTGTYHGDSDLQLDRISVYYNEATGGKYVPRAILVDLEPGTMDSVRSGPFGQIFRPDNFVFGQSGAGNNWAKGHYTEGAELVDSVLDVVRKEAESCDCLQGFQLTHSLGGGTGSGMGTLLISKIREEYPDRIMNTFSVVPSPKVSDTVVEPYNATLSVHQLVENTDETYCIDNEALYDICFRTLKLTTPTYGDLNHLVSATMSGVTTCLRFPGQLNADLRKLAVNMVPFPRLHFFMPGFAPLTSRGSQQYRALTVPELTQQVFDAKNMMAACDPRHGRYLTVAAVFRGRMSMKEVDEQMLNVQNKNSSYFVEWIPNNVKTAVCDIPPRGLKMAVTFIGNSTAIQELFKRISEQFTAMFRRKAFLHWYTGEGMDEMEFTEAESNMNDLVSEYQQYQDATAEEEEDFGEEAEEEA
UniProt Q3UDE2: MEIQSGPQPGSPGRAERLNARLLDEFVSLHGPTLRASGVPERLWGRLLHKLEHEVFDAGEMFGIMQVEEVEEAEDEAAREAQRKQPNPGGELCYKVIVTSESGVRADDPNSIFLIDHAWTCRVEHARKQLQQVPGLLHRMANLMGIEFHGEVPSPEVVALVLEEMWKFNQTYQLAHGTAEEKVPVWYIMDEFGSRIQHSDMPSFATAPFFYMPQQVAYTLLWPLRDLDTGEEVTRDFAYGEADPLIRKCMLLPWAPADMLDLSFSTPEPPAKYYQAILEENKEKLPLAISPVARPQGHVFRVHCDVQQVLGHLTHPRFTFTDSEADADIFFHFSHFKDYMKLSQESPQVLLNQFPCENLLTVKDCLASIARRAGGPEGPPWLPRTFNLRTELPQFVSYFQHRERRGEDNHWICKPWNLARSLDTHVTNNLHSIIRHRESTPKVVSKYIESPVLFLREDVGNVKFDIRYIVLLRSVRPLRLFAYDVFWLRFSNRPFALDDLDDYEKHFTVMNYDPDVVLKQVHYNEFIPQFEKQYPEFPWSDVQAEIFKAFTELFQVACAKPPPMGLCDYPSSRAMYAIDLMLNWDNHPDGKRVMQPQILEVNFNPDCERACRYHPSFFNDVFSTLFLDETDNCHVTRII
UniProt P04386: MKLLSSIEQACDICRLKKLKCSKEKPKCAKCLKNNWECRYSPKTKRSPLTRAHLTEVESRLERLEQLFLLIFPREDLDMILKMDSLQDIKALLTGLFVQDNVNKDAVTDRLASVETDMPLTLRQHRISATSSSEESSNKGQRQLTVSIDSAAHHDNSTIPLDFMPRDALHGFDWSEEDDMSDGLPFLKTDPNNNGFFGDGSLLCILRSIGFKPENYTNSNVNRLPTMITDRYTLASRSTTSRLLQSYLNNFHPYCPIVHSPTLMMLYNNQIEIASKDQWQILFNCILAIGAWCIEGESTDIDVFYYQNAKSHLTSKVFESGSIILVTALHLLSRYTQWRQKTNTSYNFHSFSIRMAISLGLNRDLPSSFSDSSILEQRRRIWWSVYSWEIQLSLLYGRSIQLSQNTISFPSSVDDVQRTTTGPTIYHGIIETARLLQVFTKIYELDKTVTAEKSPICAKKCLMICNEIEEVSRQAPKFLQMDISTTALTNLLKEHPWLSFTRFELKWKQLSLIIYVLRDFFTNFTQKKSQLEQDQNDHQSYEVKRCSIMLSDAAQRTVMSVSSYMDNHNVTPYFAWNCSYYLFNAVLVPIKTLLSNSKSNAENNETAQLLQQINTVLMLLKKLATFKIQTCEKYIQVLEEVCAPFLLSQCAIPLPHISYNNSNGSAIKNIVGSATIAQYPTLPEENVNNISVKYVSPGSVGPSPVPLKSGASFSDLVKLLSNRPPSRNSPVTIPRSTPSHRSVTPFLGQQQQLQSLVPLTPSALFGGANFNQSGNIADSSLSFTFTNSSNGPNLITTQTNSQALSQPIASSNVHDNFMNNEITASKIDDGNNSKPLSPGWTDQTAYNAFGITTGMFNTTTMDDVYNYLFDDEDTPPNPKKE

How the values were obtained:
Pcbp3 (mouse) [1] = target: Pcbp3 (mouse) (UniProt P57722); experiment: yeast two-hybrid retest after recloning (URA3 expression, no Cre)
Pcbp3 (mouse) [2] = target: Pcbp3 (mouse) (UniProt P57722); experiment: yeast two-hybrid, E12.5 bait library x prey library; individual colony PCR and sequencing
Tln1 (mouse) [3] = target: Tln1 (mouse) (UniProt P26039); experiment: yeast two-hybrid retest after recloning (URA3 expression, no Cre)
Tln1 (mouse) [4] = target: Tln1 (mouse) (UniProt P26039); experiment: yeast two-hybrid, E12.5 bait library x prey library; individual colony PCR and sequencing
Pcbp3 (mouse) [5] = target: Pcbp3 (mouse) (UniProt P57722); experiment: yeast two-hybrid, E12.5 bait library x prey library; BI-Tag identification
Tubb5 (mouse) [6] = target: Tubb5 (mouse) (UniProt P99024); experiment: as above
Ttll12 (mouse) [7] = target: Ttll12 (mouse) (UniProt Q3UDE2); experiment: yeast two-hybrid retest
Ttll12 (mouse) [8] = target: Ttll12 (mouse) (UniProt Q3UDE2); experiment: yeast two-hybrid, E12.5 bait library x prey library; individual colony PCR and sequencing (superscript: times found)
Ttll12 (mouse) [9] = target: Ttll12 (mouse) (UniProt Q3UDE2); experiment: yeast two-hybrid, E12.5 bait library x prey library; BI-Tag identification (superscript: times found, unique junctions)
Tubb5 (mouse) [10] = target: Tubb5 (mouse) (UniProt P99024); experiment: yeast two-hybrid retest after recloning (URA3 expression, no Cre)
Ttll12 (mouse) [11] = target: Ttll12 (mouse) (UniProt Q3UDE2); experiment: as above
Tubb5 (mouse) [12] = target: Tubb5 (mouse) (UniProt P99024); experiment: yeast two-hybrid, E12.5 bait library x prey library; individual colony PCR and sequencing

Measured: binding

Cugbp1 (from UniProt P04386 1-147; P28659 1-486)
binds: Pcbp3 (mouse) [1] | Pcbp3 (mouse) [2]

Rai17 (from UniProt P04386 1-147; Q6P1E1 1-1072)
binds: Tln1 (mouse) [3] | Tln1 (mouse) [4]

Sf1 (from UniProt P04386 1-147; Q64213 2-653)
not listed: Tln1 (mouse) [3] | Tln1 (mouse) [4]
binds: all other assays above
